Reference: patent publication US8722673B2, “Imine compounds for combating invertebrate pests” (BASF SE, priority 2008, dated 2014)
Some of these results come from one statement about several compounds together.

Key:
Format in all cases: in vivo
[1] = system: Diamond Back Moth (Plutella xylostella); assay: Diamond back moth leaf-dip test on Chinese cabbage; conditions: 300 ppm; recorded 24, 72 and 120 hours after treatment
Description: If not otherwise specified the test solutions were prepared as follow:
The active compound was dissolved at the desired concentration in a mixture of 1:1 (vol:vol) distilled water:acteon. The test solution was prepared the day it was used and in general at concentrations of […] (wt/vol).
Leaves of Chinese cabbage were dipped in test solution and air-dried. Treated leaves were placed in petri dished lined with moist filter paper. Mortality was recorded 24, 72, and 120 hours after treatment.

[2] = system: Mediterranean Fruitfly (Ceratitis capitata); assay: Mediterranean fruitfly microtiter plate diet test; conditions: 2500 ppm; egg and larval mortality after 5 days
Description: For evaluating control of Mediterranean fruitfly (Ceratitis capitata) the test unit consisted of microtiter plates containing an insect diet and 50-80 C. capitata eggs.
(§1) The compounds were formulated using a solution containing 75% v/v water and 25% v/v DMSO. Different concentrations of formulated compounds were sprayed onto the insect diet at 5 μl, using a custom built micro atomizer, at two replications. After application, microtiter plates were incubated at about 28±1° C. and about 80±5% relative humidity for 5 days. Egg and larval mortality was then visually assessed.

[3] = system: Tobacco Budworm (Heliothis virescens); assay: Tobacco budworm microtiter plate diet test; conditions: 2500 ppm; egg and larval mortality after 5 days
Description: as §1, with “For evaluating control of tobacco budworm (Heliothis virescens) the test unit consisted of 96-well-microtiter plates containing an insect diet and 15-25 H. virescens eggs. The” for “The”, “at 10” for “at 5”, “plates are” for “plates were”, “mortality is” for “mortality was”

[4] = system: Boll Weevil (Anthonomus grandis); assay: Boll weevil microtiter plate diet test; conditions: 2500 ppm; egg and larval mortality after 5 days
Description: as §1, with “For evaluating control of boll weevil (Anthonomus grandis) the test unit consisted of 24-well-microtiter plates containing an insect diet and 20-30 A. grandis eggs. The” for “The”, “at 20” for “at 5”, “about 23±1°” for “about 28±1°”, “about 50±5%” for “about 80±5%”

[5] = system: Southern Armyworm (Spodoptera eridania); assay: Southern armyworm spray test on lima bean plants; conditions: 300 ppm; larvae; 4 days after treatment
Description: The active compounds were formulated in cyclohexanone as a 10,000 ppm solution supplied in tubes. The tubes were inserted into an automated electrostatic sprayer equipped with an atomizing nozzle and served as stock solutions for which lower dilutions are made in 50% acetone:50% water (v/v). A nonionic surfactant (Kinetic®) was included in the solution at a volume of 0.01% (v/v).
Lima bean plants (variety Sieva) were grown 2 plants to a pot and selected for treatment at the 1st true leaf stage. Test solutions were sprayed onto the foliage by an automated electrostatic plant sprayer equipped with an atomizing spray nozzle. The plants were dried in the sprayer fume hood and then removed from the sprayer. Each pot was placed into perforated plastic bags with a zip closure. About 10 to 11 armyworm larvae were placed into the bag and the bags zipped closed. Test plants were maintained in a growth room at about 25° C. and about 20-40% relative humidity for 4 days, avoiding direct exposure to fluorescent light (24 hour photoperiod) to prevent trapping of heat inside the bags. Mortality and reduced feeding were assessed 4 days after treatment, compared to untreated control plants.

[6] = system: Orchid Thrips (Dichromothrips corbetti); assay: Orchid thrips floral-immersion test; conditions: 300 ppm; adult thrips; after 4 days
Description: Dichromothrips corbetti adults used for bioassay were obtained from a colony maintained continuously under laboratory conditions. For testing purposes, the test compound was diluted to a concentration of 300 ppm (wt compound: vol diluent) in a 1:1 mixture of acetone:water (vol:vol), plus 0.01% vol/vol Kinetic® surfactant.
Thrips potency of each compound was evaluated by using a floral-immersion technique. Plastic petri dishes were used as test arenas. All petals of individual, intact orchid flowers were dipped into treatment solution and allowed to dry. Treated flowers were placed into individual petri dishes along with 10-15 adult thrips. The petri dishes were then covered with lids. All test arenas were held under continuous light and a temperature of about 28° C. for duration of the assay. After 4 days, the numbers of live thrips was counted on each flower, and along inner walls of each petri dish. The level of thrips mortality was extrapolated from pre-treatment thrips numbers.

Row | SMILES | mortality in comparison with untreated controls [1] | mortality in comparison with untreated controls [2] | mortality in comparison with untreated controls [3] | mortality in comparison with untreated controls [4] | mortality in comparison with untreated controls [5] | mortality in comparison with untreated controls [6]
1 | CC(=NN)c1ccc(C2=NOC(c3cc(Cl)cc(Cl)c3)(C(F)(F)F)C2)cc1C (centres unmarked) [Compound 1-52] | at least 75% | at least 75% | at least 75% | at least 75% | – | –
2 | Cc1cc(C2=NOC(c3cc(Cl)cc(Cl)c3)(C(F)(F)F)C2)ccc1C(CC(C)C)=NNC(=O)C(F)(F)F (centres unmarked) [Compound 1-54] | at least 75% | – | at least 75% | at least 75% | – | –
3 | CON=C(OC)c1ccc(C2=NOC(c3cc(Cl)cc(Cl)c3)(C(F)(F)F)C2)cc1C (centres unmarked) [Compound 1-32] | at least 75% | – | at least 75% | at least 75% | at least 75% | –
4 | C#CCNC(=O)CO/N=C/c1ccc(C2=NOC(c3cc(Cl)cc(Cl)c3)(C(F)(F)F)C2)cc1C (centres unmarked) [Compound 1-11] | at least 75% | at least 75% | at least 75% | at least 75% | at least 75% | –
5 | COC(=NOC(C)C)c1ccc(C2=NOC(c3cc(Cl)cc(Cl)c3)(C(F)(F)F)C2)cc1C (centres unmarked) [Compound 1-40] | – | – | at least 75% | – | – | –
6 | COC(=NOCc1ccccc1)c1ccc(C2=NOC(c3cc(Cl)cc(Cl)c3)(C(F)(F)F)C2)cc1C (centres unmarked) [Compound 1-38] | at least 75% | – | – | – | – | –
7 | COC(=O)C(=NO)c1ccc(C2=NOC(c3cc(Cl)cc(Cl)c3)(C(F)(F)F)C2)cc1C (centres unmarked) [Compound 1-43, (Z)- and (E)-{4-[5-(3,5-Dichloro-phenyl)-5-trifluoromethyl-4,5-dihydro-isoxazol-3-yl]-2-methyl-phenyl}-[hydroxyimino]-acetic acid methyl ester] | at least 75% | – | – | at least 75% | – | –
8 | C/C(=N/OCC(=O)NCC(F)(F)F)c1ccc(C2=NOC(c3cc(Cl)cc(Cl)c3)(C(F)(F)F)C2)cc1C (centres unmarked) [Compound 1-23] | at least 75% | at least 75% | at least 75% | – | – | –
9 | CCON=C(OC)c1ccc(C2=NOC(c3cc(Cl)cc(Cl)c3)(C(F)(F)F)C2)cc1C (centres unmarked) [Compound 1-34] | at least 75% | – | at least 75% | at least 75% | at least 75% | –
10 | CO/N=C(/C)c1ccc(C2=NOC(c3cc(Cl)cc(Cl)c3)(C(F)(F)F)C2)cc1C (centres unmarked) [Compound 1-18] | at least 75% | at least 75% | at least 75% | at least 75% | – | –
11 | CCCON=C(OC)c1ccc(C2=NOC(c3cc(Cl)cc(Cl)c3)(C(F)(F)F)C2)cc1C (centres unmarked) [Compound 1-36] | at least 75% | at least 75% | at least 75% | at least 75% | at least 75% | at least 75%
12 | CC(=NOCC(=O)O)c1ccc(C2=NOC(c3cc(Cl)cc(Cl)c3)(C(F)(F)F)C2)cc1C (centres unmarked) [Compound 1-26] | – | – | at least 75% | – | – | –
13 | C/C(=N\OCC(=O)NCC(F)(F)F)c1ccc(C2=NOC(c3cc(Cl)cc(Cl)c3)(C(F)(F)F)C2)cc1C (centres unmarked) [Compound 1-24] | at least 75% | – | – | – | – | –
14 | CC(=NNC(=O)c1ccccn1)c1ccc(C2=NOC(c3cc(Cl)cc(Cl)c3)(C(F)(F)F)C2)cc1C (centres unmarked) [Compound 1-51] | at least 75% | – | at least 75% | – | – | –
15 | CON=C(CC(C)C)c1ccc(C2=NOC(c3cc(Cl)cc(Cl)c3)(C(F)(F)F)C2)cc1C (centres unmarked) [Compound 1-56] | – | at least 75% | at least 75% | at least 75% | – | –
16 | Cc1cc(C2=NOC(c3cc(Cl)cc(Cl)c3)(C(F)(F)F)C2)ccc1/C=N/OCC(=O)NCC1CC1 (centres unmarked) [Compound 1-10] | at least 75% | at least 75% | at least 75% | at least 75% | at least 75% | –
17 | CON=C(OC)c1ccc(C2=NOC(c3cc(Cl)cc(Cl)c3)(C(F)(F)F)C2)cc1C (centres unmarked) [Compound 1-33] | – | at least 75% | – | – | – | at least 75%
18 | CNC(=O)CO/N=C(/C)c1ccc(C2=NOC(c3cc(Cl)cc(Cl)c3)(C(F)(F)F)C2)cc1C (centres unmarked) [Compound 1-27] | – | – | at least 75% | – | – | –
19 | CCNC(=O)CO/N=C(/C)c1ccc(C2=NOC(c3cc(Cl)cc(Cl)c3)(C(F)(F)F)C2)cc1C (centres unmarked) [Compound 1-21] | at least 75% | – | at least 75% | – | – | –
20 | Cc1cc(C2=NOC(c3cc(Cl)cc(Cl)c3)(C(F)(F)F)C2)ccc1C=NN(C)C(=N)N (centres unmarked) [Compound 1-53] | at least 75% | at least 75% | at least 75% | at least 75% | – | –
21 | CO/N=C(\C)c1ccc(C2=NOC(c3cc(Cl)cc(Cl)c3)(C(F)(F)F)C2)cc1C (centres unmarked) [Compound 1-19] | – | – | at least 75% | – | – | –
22 | CO/N=C/c1ccc(C2=NOC(c3cc(Cl)cc(Cl)c3)(C(F)(F)F)C2)cc1C (centres unmarked) [Compound 1-2] | at least 75% | – | at least 75% | – | at least 75% | –
23 | CNC(=O)CO/N=C(\C)c1ccc(C2=NOC(c3cc(Cl)cc(Cl)c3)(C(F)(F)F)C2)cc1C (centres unmarked) [Compound 1-28] | – | – | at least 75% | – | – | –
24 | CCNC(=O)CO/N=C(\C)c1ccc(C2=NOC(c3cc(Cl)cc(Cl)c3)(C(F)(F)F)C2)cc1C (centres unmarked) [Compound 1-22] | – | at least 75% | at least 75% | – | – | –
25 | COC(=O)C(=NO)c1ccc(C2=NOC(c3cc(Cl)cc(Cl)c3)(C(F)(F)F)C2)cc1C (centres unmarked) [Compound 1-42, (Z)- and (E)-{4-[5-(3,5-Dichloro-phenyl)-5-trifluoromethyl-4,5-dihydro-isoxazol-3-yl]-2-methyl-phenyl}-[hydroxyimino]-acetic acid methyl ester] | – | – | at least 75% | – | – | –
26 | CCNC(=O)CO/N=C/c1ccc(C2=NOC(c3cc(Cl)cc(Cl)c3)(C(F)(F)F)C2)cc1C (centres unmarked) [Compound 1-7] | at least 75% | at least 75% | at least 75% | at least 75% | at least 75% | –
